Some entries share one result that the patent states for a list of compounds.
The compounds below were run against α4β2 nicotine receptor (Rattus norvegicus, UniProt P09483+P12390) (assay: Test A: [3H]cytisine binding). Conditions: [3H]cytisine binding site.

Sequences of proteins named here, by UniProt entry; tags and fusion partners are left off. Residues count along the entry.
UniProt P09483, 31-630: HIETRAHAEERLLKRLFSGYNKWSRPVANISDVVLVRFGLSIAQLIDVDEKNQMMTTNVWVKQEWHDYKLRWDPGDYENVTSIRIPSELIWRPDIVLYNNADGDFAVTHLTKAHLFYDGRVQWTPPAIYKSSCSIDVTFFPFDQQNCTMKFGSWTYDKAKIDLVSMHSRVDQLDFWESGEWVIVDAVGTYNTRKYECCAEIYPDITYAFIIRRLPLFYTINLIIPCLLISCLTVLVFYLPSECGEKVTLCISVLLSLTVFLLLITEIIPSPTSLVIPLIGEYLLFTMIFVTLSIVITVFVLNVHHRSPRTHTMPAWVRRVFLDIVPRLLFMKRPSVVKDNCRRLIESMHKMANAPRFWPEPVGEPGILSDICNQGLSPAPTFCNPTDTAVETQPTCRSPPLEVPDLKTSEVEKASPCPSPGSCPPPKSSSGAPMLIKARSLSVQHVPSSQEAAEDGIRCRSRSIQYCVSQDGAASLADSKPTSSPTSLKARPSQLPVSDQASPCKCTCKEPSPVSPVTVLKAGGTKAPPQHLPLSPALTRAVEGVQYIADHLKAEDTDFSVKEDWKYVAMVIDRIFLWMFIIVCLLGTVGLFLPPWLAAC
UniProt P12390, 25-500: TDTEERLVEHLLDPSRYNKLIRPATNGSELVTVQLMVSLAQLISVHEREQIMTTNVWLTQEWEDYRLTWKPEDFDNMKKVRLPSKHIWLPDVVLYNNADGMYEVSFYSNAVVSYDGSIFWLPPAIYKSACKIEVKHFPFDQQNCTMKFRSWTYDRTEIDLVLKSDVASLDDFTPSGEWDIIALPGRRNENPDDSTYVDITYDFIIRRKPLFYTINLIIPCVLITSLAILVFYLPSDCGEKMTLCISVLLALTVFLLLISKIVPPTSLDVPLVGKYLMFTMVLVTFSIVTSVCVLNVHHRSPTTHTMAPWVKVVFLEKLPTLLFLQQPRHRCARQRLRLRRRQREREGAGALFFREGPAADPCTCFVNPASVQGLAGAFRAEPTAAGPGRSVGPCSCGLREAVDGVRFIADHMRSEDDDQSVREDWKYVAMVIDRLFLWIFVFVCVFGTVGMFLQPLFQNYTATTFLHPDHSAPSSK

Affinity compared to the corresponding unsubstituted compounds 1 and 6 (in words), lower affinities:
CN1CCCCC1CC1=Cc2ccccc2C1.Cl (racemic) [Compound 13, 1-Methyl-2-(2-indenyl)methylpiperidine hydrochloride]
COc1ccc2c(c1)CC(CC1CCCCN1C)=C2.Cl (racemic) [Compound 14, 1-Methyl-2-(6-methoxyinden-2-yl)methylpiperidine hydrochloride]
CN1CCCCC1CC1=Cc2ccc(O)cc2C1.Cl (racemic) [Compound 15, 1-Methyl-2-(6-hydroxyinden-2-yl)methylpiperidine hydrochloride]
